The list shows a part of the results, in another mix than the full data. At the low end of the ranking the order means little.
Columns and labels:
Test in all cases: DAPPL (digital affinity profiling via proximity ligation, sequencing)
Conditions in all cases: 10 mM Tris-HCl pH 7.5, 50 mM NaCl, 1 mM DTT, 4% glycerol, room temperature, 30 min; GST-TFs on glutathione beads, 16-mer random dsDNA library, 0.1% …; high values mean tight binding; double strand, one strand shown; scale: fold enrichment (6-mer frequency, TF over GST control)
FEV = biological target: T1, FEV (UniProt Q99581)
T1 sequence: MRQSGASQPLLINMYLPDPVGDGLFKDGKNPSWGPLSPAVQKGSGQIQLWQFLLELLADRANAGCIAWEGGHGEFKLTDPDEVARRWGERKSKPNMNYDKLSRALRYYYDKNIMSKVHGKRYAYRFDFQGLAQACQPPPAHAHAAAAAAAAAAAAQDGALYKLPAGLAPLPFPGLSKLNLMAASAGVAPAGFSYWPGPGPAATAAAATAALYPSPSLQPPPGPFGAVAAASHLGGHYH

By UniProt entry, the sequences of proteins in these tests, tags left out. Where a name states a change or a piece, a line headed by the entry shows the natural chain unless it says otherwise.
UniProt O43186: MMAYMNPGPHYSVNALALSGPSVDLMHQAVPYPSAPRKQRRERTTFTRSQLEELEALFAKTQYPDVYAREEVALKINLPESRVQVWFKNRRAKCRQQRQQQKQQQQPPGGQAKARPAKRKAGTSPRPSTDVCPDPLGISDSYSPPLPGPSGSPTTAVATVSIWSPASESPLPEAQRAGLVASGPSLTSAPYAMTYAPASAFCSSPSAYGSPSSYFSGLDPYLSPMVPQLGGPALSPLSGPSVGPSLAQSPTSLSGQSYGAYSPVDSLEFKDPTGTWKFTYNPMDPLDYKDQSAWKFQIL

CRX = CRX (UniProt O43186)
ELF5 = biological target: T2, ELF5 (UniProt Q9UKW6-2)
T2 sequence: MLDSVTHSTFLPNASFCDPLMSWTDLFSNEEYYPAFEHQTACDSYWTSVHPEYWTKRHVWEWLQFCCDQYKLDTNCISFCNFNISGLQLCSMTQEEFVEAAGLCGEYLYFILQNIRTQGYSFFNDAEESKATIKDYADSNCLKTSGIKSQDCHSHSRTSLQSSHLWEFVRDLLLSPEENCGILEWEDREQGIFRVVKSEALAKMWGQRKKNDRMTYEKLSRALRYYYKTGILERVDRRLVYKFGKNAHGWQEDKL

Row | Sequence | binding signal (FEV) | binding signal (CRX) | binding signal (ELF5)
1 | TCTTAG | 1.16 | 1.86 | –
2 | ATGGAT | 1.04 | 1.6 | –
3 | TTTGAA | 1.13 | 1.28 | –
4 | CCGATC | 1.24 | 1.36 | –
5 | ACTCCT | 1.47 | 1.32 | –
6 | TTCCGT | 1.86 | 0.962 | –
7 | ATGTAC | 1.3 | 0.994 | –
8 | TGGCAG | 1.18 | 0.914 | –
9 | ATGACG | 1.32 | 1.11 | –
10 | TGTGGA | 0.997 | 1.06 | –
11 | TCACTT | 1.99 | 1.23 | –
12 | ACACGA | 1.1 | 0.964 | –
13 | AATTAG | 1.07 | 1.69 | –
14 | AGATTC | 1.13 | 1.41 | –
15 | TAACCC | 1.26 | 1.77 | –
16 | ATTCTA | 1.14 | 1.84 | –
17 | TTATGT | 1.15 | 2.24 | –
18 | ACTTTA | 1.15 | 1.54 | –
19 | TTCAGT | 1.01 | 0.957 | –
20 | CATTTC | 2.2 | 0.946 | –
21 | ACTACT | 1.3 | 1.11 | –

Some of the entries so far, with tabs.
Row	Sequence	binding signal (FEV)	binding signal (CRX)	binding signal (ELF5)
14	AGATTC	1.13	1.41	–
15	TAACCC	1.26	1.77	–
16	ATTCTA	1.14	1.84	–

Next part:

Row | Sequence | binding signal (FEV) | binding signal (CRX) | binding signal (ELF5)
22 | TGACAC | 1.11 | 0.831 | –
23 | GCTACC | 1.18 | 0.825 | –
24 | CTTCAG | 1.26 | 1.16 | –
25 | ATCTCG | 1.19 | 1.92 | –
26 | TGGTTC | 1.35 | 0.963 | –
27 | TTGACA | 1.34 | 1.22 | –
28 | GCGCTC | 1.06 | 0.964 | –
29 | CGCTAG | 1.06 | 0.98 | –
30 | AAGTCT | 1.07 | 1.28 | –
31 | CTTGTG | 1.39 | 1.25 | –
32 | GTTCCA | 1.01 | 0.996 | –
33 | AACAGG | 1.16 | 0.84 | –
34 | TCTCAA | 1.25 | 1.39 | –
35 | CTAGTT | 1.23 | 1.16 | –
36 | TGGTAG | 0.999 | 0.939 | –
37 | AGGTAT | 0.97 | – | 0.942
38 | TATTAT | 1.12 | – | –
39 | CTTAGG | 1.11 | – | 1.11
40 | ACAGAT | 0.963 | – | 0.932
41 | ATCGCC | 1.24 | – | –
42 | CTCTGT | 1.39 | – | 1.37
